Measurements reported in the supplement of paper PMC9744312.
Structures can show the parent of a compound that is named as a salt. The list shows a part of the results. The data scatter; read single values as rough.

The molecules below were run on Peyronie's disease tunica albuginea primary fibroblasts (assay: inhibition of TGF-beta1-induced alpha-SMA expression (myofibroblast transformation), relative to TGF-beta1-only and untreated controls; higher = stronger inhibition of myofibroblast transformation). Settings: 10 µM; TGF-beta1 10 ng/mL; 72 h.

Compound | inhibition of TGF-beta1-induced alpha-SMA expression [%]
OB1OCc2cc(F)ccc21 [Tavaborole (AN-2690)] | 30
O=C(OCC(O)CO)c1ccccc1Nc1ccnc2cc(Cl)ccc12 (stereo not drawn) [Glafenine HCl] | 30.7
NC(=O)c1cn(Cc2c(F)cccc2F)nn1 [Rufinamide] | 5.16
CC(C(=O)O)c1ccc(-c2ccccc2)c(F)c1 (stereo not drawn) [Flurbiprofen] | 49.4
C[C@H]1O[C@@H](O[C@H]2[C@@H](O)C[C@H](O[C@H]3[C@@H](O)C[C@H](O[C@H]4CC[C@@]5(C)[C@H](CC[C@@H]6[C@@H]5C[C@@H](O)[C@]5(C)[C@@H](C7=CC(=O)OC7)CC[C@]65O)C4)O[C@@H]3C)O[C@@H]2C)C[C@H](O)[C@@H]1O [Digoxin] | > 100
CC[C@]1(O)C[C@H]2CN(CCc3c([nH]c4ccccc34)[C@@](C(=O)OC)(c3cc4c(cc3OC)N(C=O)[C@H]3[C@@](O)(C(=O)OC)[C@H](OC(C)=O)[C@]5(CC)C=CCN6CC[C@]43[C@@H]65)C2)C1 [Vincristine sulfate] | 87.6
Nc1nc(CC(=O)Nc2ccc(CCNC[C@H](O)c3ccccc3)cc2)cs1 [Mirabegron] | -4.58
NC[C@@H]1O[C@H](O[C@H]2[C@@H](O)[C@H](O[C@@H]3[C@@H](O)[C@H](N)C[C@H](N)[C@H]3O[C@H]3O[C@H](CO)[C@@H](O)[C@H](O)[C@H]3N)O[C@@H]2CO)[C@H](N)[C@@H](O)[C@@H]1O [Paromomycin Sulfate] | 17.4
COc1ccccc1OCC(O)CO (stereo not drawn) [Guaifenesin] | 7.44
Cc1cc(=O)[nH]c(=S)[nH]1 [Methylthiouracil] | 13.1
CN1[C@@H]2CC[C@H]1C[C@@H](OC(=O)c1c[nH]c3ccccc13)C2 [Tropisetron HCl] | 14.6
CN1[C@@H]2CC[C@H]1C[C@@H](OC(=O)c1c[nH]c3ccccc13)C2 [Tropisetron] | -0.994
Cc1cccc(C)c1OCC(C)N (stereo not drawn) [Mexiletine HCl] | -4.81
CCN(CC)CCNC(=O)c1c(C)[nH]c(/C=C2\C(=O)Nc3ccc(F)cc32)c1C [Sunitinib Malate] | > 100
CCN(CC)CCNC(=O)c1c(C)[nH]c(/C=C2\C(=O)Nc3ccc(F)cc32)c1C [Sunitinib] | 68.3
COc1ccc(/C=C/C(=O)Nc2ccccc2C(=O)O)cc1OC [Tranilast] | 38.2
Oc1ccc(/C=C/c2cc(O)cc(O)c2)cc1 [Resveratrol] | 13.6
CCOC(=O)C1=C(COCCN)NC(C)=C(C(=O)OC)C1c1ccccc1Cl (stereo not drawn) [Amlodipine Besylate] | 23.2
CCOC(=O)C1=C(COCCN)NC(C)=C(C(=O)OC)C1c1ccccc1Cl (stereo not drawn) [Amlodipine] | 22.1
Cc1cc(/C=C/C#N)cc(C)c1Nc1ccnc(Nc2ccc(C#N)cc2)n1 [Rilpivirine] | 37.2
CCOc1cc2ncc(C#N)c(Nc3ccc(F)c(Cl)c3)c2cc1NC(=O)/C=C/CN(C)C [Pelitinib (EKB-569)] | 99.7
Oc1c(Cl)cc(Cl)c(Cl)c1Cc1c(O)c(Cl)cc(Cl)c1Cl [Hexachlorophene] | > 100

Compound | inhibition of TGF-beta1-induced alpha-SMA expression [%]
OC(CNCC(O)C1CCc2cc(F)ccc2O1)C1CCc2cc(F)ccc2O1 (stereo not drawn) [Nebivolol HCl] | 31.8
CC(=O)NS(=O)(=O)c1ccc(NC(=O)c2ccccc2C(=O)O)cc1 [Phthalylsulfacetamide] | -4.01
NC(=O)c1cccc2cn(-c3ccc([C@@H]4CCCNC4)cc3)nc12 [Niraparib (MK-4827) tosylate] | 40.7
NC(=O)c1cccc2cn(-c3ccc([C@@H]4CCCNC4)cc3)nc12 [Niraparib (MK-4827)] | 70.7
CC[C@H](C)[C@H](N)C1=N[C@H](C(=O)N[C@@H](CC(C)C)C(=O)N[C@H](CCC(=O)O)C(=O)N[C@H](C(=O)N[C@H]2CCCCNC(=O)[C@H](CC(N)=O)NC(=O)[C@@H](CC(=O)O)NC(=O)[C@H](Cc3cnc[nH]3)NC(=O)[C@@H](Cc3ccccc3)NC(=O)[C@H]([C@@H](C)CC)NC(=O)[C@@H](CCCN)NC2=O)[C@@H](C)CC)CS1 [Bacitracin] | 2.79
CN1CCN(CCCN2c3ccccc3Sc3ccc(C(F)(F)F)cc32)CC1 [Trifluoperazine 2HCl] | > 100
CC(S)C(=O)NCC(=O)O (stereo not drawn) [Tiopronin] | -14.9
COC[C@H]1C[C@@H](c2nc(-c3ccc4c(c3)COc3cc5c(ccc6nc([C@@H]7CC[C@H](C)N7C(=O)[C@@H](NC(=O)OC)C(C)C)[nH]c65)cc3-4)c[nH]2)N(C(=O)[C@H](NC(=O)OC)c2ccccc2)C1 [Velpatasvir] | 5.07
CNC[C@H](O)c1ccc(O)c(O)c1 [Epinephrine bitartrate] | -4.8
CNC[C@H](O)c1ccc(O)c(O)c1 [Epinephrine HCl] | 38.2
Nc1ccn([C@H]2CC[C@@H](CO)O2)c(=O)n1 [Zalcitabine] | 2.78
C=CCNC(N)=S [Allylthiourea] | 24
CN(C)CCOC(C)(c1ccccc1)c1ccccn1 (stereo not drawn) [Doxylamine Succinate] | 10.9
C[C@@H](O)[C@H]1C(=O)N2C(C(=O)O)=C(S[C@@H]3CN[C@H](CNS(N)(=O)=O)C3)[C@H](C)[C@H]12 [Doripenem Hydrate] | 48.3
C[C@@H](O)[C@H]1C(=O)N2C(C(=O)O)=C(S[C@@H]3CN[C@H](CNS(N)(=O)=O)C3)[C@H](C)[C@H]12 [Doripenem] | 32.4
Oc1c(I)cc(Cl)c2cccnc12 [Clioquinol] | -37.1
CC(C)(C#N)c1cc(Cn2cncn2)cc(C(C)(C)C#N)c1 [Anastrozole] | -46
COc1cc2nccc(Oc3ccc(NC(=O)Nc4cc(C)on4)c(Cl)c3)c2cc1OC [Tivozanib (AV-951)] | -116
C(=C\c1ccccc1)/CN1CCN(C(c2ccccc2)c2ccccc2)CC1 [Cinnarizine] | -23.8
C[C@]1(O)C[C@@H](c2nc(-c3ccc4ccc(-c5ccccc5)nc4c3)c3c(N)nccn32)C1 [Linsitinib (OSI-906)] | 1.46
O=C([O-])c1ccccc1.[Na+] [Sodium benzoate] | 10.4

Part of the list above, tab-delimited:
Compound	inhibition of TGF-beta1-induced alpha-SMA expression [%]
C=CCNC(N)=S [Allylthiourea]	24
CN(C)CCOC(C)(c1ccccc1)c1ccccn1 (stereo not drawn) [Doxylamine Succinate]	10.9
C[C@@H](O)[C@H]1C(=O)N2C(C(=O)O)=C(S[C@@H]3CN[C@H](CNS(N)(=O)=O)C3)[C@H](C)[C@H]12 [Doripenem Hydrate]	48.3
